Laboratory results as given in PMC7282811.
No constants are given. Whether binding was seen depends on the method and setting. In cells and extracts the contact can be indirect. Some entries that bind do so weakly or less than the wild type.

Protein sequences, listed by entry. Tags and fused reporters are not part of them.
UniProt Q9Y5N1: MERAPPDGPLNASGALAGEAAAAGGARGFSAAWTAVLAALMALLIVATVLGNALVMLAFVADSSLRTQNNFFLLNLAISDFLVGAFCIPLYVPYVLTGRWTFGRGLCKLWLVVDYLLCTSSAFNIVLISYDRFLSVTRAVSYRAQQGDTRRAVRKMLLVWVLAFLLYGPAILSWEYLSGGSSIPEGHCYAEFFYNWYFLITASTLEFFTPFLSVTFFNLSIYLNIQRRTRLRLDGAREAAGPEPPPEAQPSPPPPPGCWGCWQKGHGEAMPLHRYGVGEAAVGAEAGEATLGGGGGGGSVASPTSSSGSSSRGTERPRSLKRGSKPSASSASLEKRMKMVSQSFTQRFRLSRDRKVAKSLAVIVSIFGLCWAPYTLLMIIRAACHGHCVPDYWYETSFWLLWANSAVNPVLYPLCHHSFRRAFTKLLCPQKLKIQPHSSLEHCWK
UniProt P21728: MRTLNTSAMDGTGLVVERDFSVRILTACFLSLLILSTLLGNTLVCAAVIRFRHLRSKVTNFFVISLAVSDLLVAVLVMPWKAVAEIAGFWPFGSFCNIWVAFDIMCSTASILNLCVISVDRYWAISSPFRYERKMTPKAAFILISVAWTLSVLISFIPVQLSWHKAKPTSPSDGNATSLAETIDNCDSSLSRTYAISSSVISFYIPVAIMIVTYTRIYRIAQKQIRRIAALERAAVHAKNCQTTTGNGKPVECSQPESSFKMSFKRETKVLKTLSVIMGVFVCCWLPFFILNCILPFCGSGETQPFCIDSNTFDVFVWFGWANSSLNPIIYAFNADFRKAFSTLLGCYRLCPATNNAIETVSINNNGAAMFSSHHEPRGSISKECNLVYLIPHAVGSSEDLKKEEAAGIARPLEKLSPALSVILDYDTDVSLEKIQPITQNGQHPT

Key:
[1] = target: histamine H3 receptor (human, endogenous) (human (endogenous in caudate-putamen)) (UniProt Q9Y5N1); assay: condition: only in sections of grade 3-4 HD patients; proximity ligation; in situ PLA on paraffin-embedded post-mortem human caudate-putamen sections of grade 3 and grade 4 HD patients
[2] = target: histamine H3 receptor (human, endogenous) (human (endogenous in caudate-putamen)) (UniProt Q9Y5N1); assay: proximity ligation; in situ PLA on paraffin-embedded post-mortem human caudate-putamen sections of control subjects and grade 0-2 HD patients
[3] = target: histamine H3 receptor (human, endogenous) (human (endogenous in caudate-putamen)) (UniProt Q9Y5N1); assay: proximity ligation; in situ PLA on paraffin-embedded post-mortem human caudate-putamen sections of grade 3 and grade 4 HD patients

Substance: dopamine D1 receptor (human, endogenous) (from UniProt P21728 1-446)
- binding [1]: no binding
- binding [2]: binds
- binding [3]: binds weakly
